Results as given in patent US20070093410A1, “Selective inhibition of proteasomes of tuberculosis and other bacteria” (President and Fellows of Harvard College, priority 2004, published 2007).
Some entries share one result that the patent states for a list of compounds.

Assays:
[1] = target: T1, archaebacterial 'open-gate' 20S proteasomes (Thermoplasma acidophilum, UniProt P28061); experiment: Cleavage of polyQ peptides by archaebacterial 'open-gate' (Δ7α) 20S proteasomes; type: biochemical; details: identical incubation temperatures (37° C.); FIG. 4A
T1 sequence (P28061 9-211): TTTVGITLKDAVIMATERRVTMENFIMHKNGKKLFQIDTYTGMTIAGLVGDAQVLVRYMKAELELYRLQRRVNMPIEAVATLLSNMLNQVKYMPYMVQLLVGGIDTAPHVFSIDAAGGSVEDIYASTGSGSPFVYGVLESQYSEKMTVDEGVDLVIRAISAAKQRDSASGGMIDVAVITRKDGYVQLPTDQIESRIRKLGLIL
Description: FIGS. 4A-4B depict multiple cleavages within the polyQ sequence by archaebacterial proteasomes. A) bKKQ20KK (SEQ ID NO:9) (25 μM) was incubated with 0.6 μg of yeast or 250 ng of archaebacterial ‘open-gate’ 20S particles in a total volume of 50 μl. B) Products generated by the archaebacterial proteasomes were analyzed by MALDI-TOF.
20S proteasomes of archaebacteria, e.g., Thermoplasma acidophilum, contain 14 identical active sites, which, though originally classified as “chymotrypsin-like” (Dahlmann et al. (1991) Biomed. Biochim. Acta 50:465, incorporated herein by reference in its entirety for all purposes), were later shown to cleave also after basic and acidic residues (Akopian et al., supra). These “less-specific” active sites were tested to determine if they could degrade within a polyQ sequence. […] It was determined that mutant archaebacterial proteasomes lacking this gate (Δ7α) (Benaroudj et al., supra, incorporated herein by reference in its entirety for all purposes) cleaved polyQ peptides and control peptides at least 17 fold faster than the wild-type particles. […]
For 20S proteasomes, 20 mM Hepes (pH 7.5) containing 1 mM dithiothreitol (DTT) was used. […] The reaction was terminated with 0.4 ml of ice-cold water and fluorescence read at 380 nm excitation and 470 nm emission.

[2] = test system: SDS-activated 20S mammalian proteasomes; experiment: Inhibition of individual active sites of SDS-activated 20S mammalian proteasomes, fluorogenic substrates specific for each active site; type: biochemical, rabbit; details: fluorogenic substrate specific for the site, FIG. 1C
Description: FIGS. 1A-1D depict hydrolysis of bKKQ10KK (SEQ ID NO:5) by the trypsin-like active site of the eukaryotic proteasome. A) 80 μM bKKQ10KK (SEQ ID NO:5) was incubated with mammalian (rabbit) 20S proteasomes with or without PA28αβ, 0.02% SDS. B) 35 μM bKKQ10KK (SEQ ID NO:5) was incubated with yeast wild type and ‘open-gate’ (α3ΔN) proteasomes. C) Mammalian 20S proteasomes were treated with inhibitors specific to each active site. D) After inactivation, the proteasomes were further incubated with bKKQ10KK (SEQ ID NO:5).
To identify which active site of the proteasome cleaved after bKKQ, inhibitors that selectively block the individual active sites were used. SDS-activated 20S mammalian proteasomes were treated with the irreversible inhibitors, 4-hydroxy-5-iodo-3-nitrophenylacetyl-Leu-Leu-vinyl sulfone (NLVS); (Bogyo et al., supra, incorporated herein by reference in its entirety for all purposes), which is specific for the chymotrypsin-like site; Acetyl-Tyr-Arg-Leu-Asn-vinyl sulfone (SEQ ID NO:20) (Ac-YRLN-VS), which reacts primarily with the trypsin-like site (Nazif et al. (2001) Proc. Natl. Acad. Sci. USA 98:2967, incorporated herein by reference in its entirety for all purposes); or with the reversible inhibitor of the caspase-like site, Z-Pro-norLeu-Asp-aldehyde (Z-PnLD-CHO) (Kisselev et al. (2003) supra, incorporated herein by reference in its entirety for all purposes). […]

Row | Substance | cleavage rate by archaebacterial 'open-gate' relative to yeast 'open-gate' 20S proteasomes [1] | decrease in the individual peptidase activity (trypsin-like site) [2]
1 | bKKQ20KK: Q20 sequence flanked by two lysine residues on each end and biotin on the α amino group (SEQ ID NO:9) (KKQQQQQQQQQQQQQQQQQQQQKK; N-terminal biotin; Peptide generated by solid-phase peptide synthesis; (1)..(1) Biotin attached to alpha amino group) | at least 70 times | –
2 | Acetyl-Tyr-Arg-Leu-Asn-vinyl sulfone (YRLN; N-acetyl, C-terminal vinyl sulfone; Peptide generated by solid-phase peptide synthesis; MOD_RES (1)..(1) …ON; (4)..(4) C-terminal vinyl sulfone) [Ac-YRLN-VS] | – | 85%-95%
3 | bKKQ10KK: peptide containing 10 Q-residues flanked at each end by two lysine residues, biotin on the α amino group (SEQ ID NO:8) (KKQQQQQQQQQQKK; N-terminal biotin; Peptide generated by solid-phase peptide synthesis; (1)..(1) Biotin attached to alpha amino group) | at least 70 times | –
